Measurements: patent US20160096882A1
No constants are given. Whether binding was seen depends on the method and setting. Some binding calls cover weakened binding; strength is not graded here.

Molecular target: H3N2 Hong Kong/68 hemagglutinin (Influenza A virus H3N2 Hong Kong/68) (UniProt P03437)
Assay: IgG binding to hemagglutinin antigen, Table 2 column 'Binding'

B1: 1286-A11 antibody (antibody, V domains shown)
VH: QVQLQQSGPRLVKPSQTLSLTCAISGDSVSGDSGTWNWIRQSPSRGLEWLGRTYYRSKWYNDYAESVKSRIVIKADTSKNEFSLQLNSVTPEDTAIYYCARAGVKIFGLIVGALDNWGRGTLVTVSS
VL: EIVMTQSPGTLSLSPGERATLSCRASQSVSSSYLAWYQQKPGQAPRLLIYGASTRATGVPDRFHGGGSGTDFTLTISRLEPEDFAVYYCQQYDTSSGLTFGGGTKVEIK
B1 was tested, and the binding was “binds”.
